## Drug screen on melanoma cell lines: cell count

Data from the primary screen of doi:10.1371/journal.pone.0140310, rounded.

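Human melanoma cells were exposed to two drugs together for 72 h in 1,536-well plates and read by automated microscopy after fixing and staining. The read-out is cell count (nuclei) in % of the DMSO control; lower values mean stronger growth inhibition or killing. Every drug was used at one fixed concentration, the higher of two screened. No replicate spread is given; individual values may be noisy.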
An unselected part of the screen is shown.

Drugs:
IMD-0354, 80 nM: O=C(Nc1cc(C(F)(F)F)cc(C(F)(F)F)c1)c1cc(Cl)ccc1O
TCS401, 8330 nM: O=C(O)C(=O)Nc1sc2c(c1C(=O)O)CCNC2
ABT-263, 2000 nM: CC1(C)CCC(c2ccc(Cl)cc2)=C(CN2CCN(c3ccc(C(=O)NS(=O)(=O)c4ccc(N[C@H](CCN5CCOCC5)CSc5ccccc5)c(S(=O)(=O)C(F)(F)F)c4)cc3)CC2)C1
vatalanib, 10000 nM: Clc1ccc(Nc2nnc(Cc3ccncc3)c3ccccc23)cc1
PLX4720, 400 nM: CCCS(=O)(=O)Nc1ccc(F)c(C(=O)c2c[nH]c3ncc(Cl)cc23)c1F
GW0742, 10000 nM: Cc1cc(SCc2sc(-c3ccc(C(F)(F)F)c(F)c3)nc2C)ccc1OCC(=O)O
KU-55933, 5000 nM: O=c1cc(-c2cccc3c2Sc2ccccc2S3)oc(N2CCOCC2)c1
YM155, 2 nM: COCC[n+]1c2c(n(Cc3cnccn3)c1C)C(=O)c1ccccc1C2=O
NVP-BEZ235, 20 nM: Cn1c(=O)n(-c2ccc(C(C)(C)C#N)cc2)c2c3cc(-c4cnc5ccccc5c4)ccc3ncc21
GW2580, 5000 nM: COc1ccc(COc2ccc(Cc3cnc(N)nc3N)cc2OC)cc1
vorinostat, 400 nM: O=C(CCCCCCC(=O)Nc1ccccc1)NO

| # | Drugs | COLO 800 | C32 | COLO 792 | COLO 829 | WM451Lu | WM3619 |
|---|---|---|---|---|---|---|---|
| 1 | GW2580 and vatalanib | 59.6 | 104 | 73.7 | 93.3 | 83.3 | 73.4 |
| 2 | IMD-0354 and KU-55933 | 101 | 93.9 | 106 | 110 | 101 | 88.8 |
| 3 | TCS401 and ABT-263 | 45.0 | 84.0 | 23.0 | 108 | 86.4 | 80.2 |
| 4 | vorinostat and GW2580 | 86.1 | 94.5 | 80.8 | 85.8 | 88.7 | 82.7 |
| 5 | IMD-0354 and TCS401 | 105 | 96.5 | 114 | 83.3 | 106 | 114 |
| 6 | PLX4720 and TCS401 | 120 | 83.9 | 109 | 75.4 | 56.9 | 80.8 |
| 7 | GW0742 and PLX4720 | 89.1 | 84.7 | 103 | 85.7 | 72.5 | 70.0 |
| 8 | IMD-0354 and vorinostat | 76.2 | 82.6 | 78.6 | 83.7 | 65.5 | 74.2 |
| 9 | vorinostat and vatalanib | 24.3 | 80.9 | 49.5 | 66.8 | 62.8 | 60.3 |
| 10 | ABT-263 and GW2580 | 45.5 | 85.2 | 13.8 | 77.9 | 76.3 | 86.5 |
| 11 | YM155 and PLX4720 | 53.5 | 79.8 | 53.4 | 78.6 | 14.5 | 69.8 |
| 12 | KU-55933 and GW0742 | 85.3 | 89.8 | 85.8 | 93.2 | 90.3 | 82.5 |
| 13 | ABT-263 and vorinostat | 69.2 | 93.4 | 19.6 | 86.9 | 63.2 | 54.4 |
| 14 | GW2580 and GW0742 | 130 | 86.8 | 72.2 | 105 | 82.6 | 96.2 |
| 15 | ABT-263 and NVP-BEZ235 | 25.3 | 78.5 | 11.3 | 67.4 | 56.5 | 36.4 |
| 16 | vatalanib and NVP-BEZ235 | 47.5 | 90.0 | 32.4 | 44.8 | 68.8 | 39.7 |
| 17 | vatalanib and IMD-0354 | 93.8 | 109 | 53.3 | 75.6 | 73.5 | 56.9 |
| 18 | YM155 and IMD-0354 | 34.5 | 96.0 | 72.6 | 77.6 | 44.5 | 77.8 |
| 19 | vorinostat and YM155 | 27.5 | 98.4 | 77.3 | 60.7 | 50.8 | 59.0 |
| 20 | YM155 and TCS401 | 50.5 | 113 | 59.5 | 76.0 | 46.0 | 77.2 |
| 21 | IMD-0354 and GW2580 | 52.8 | 101 | 141 | 97.0 | 84.7 | 107 |
| 22 | KU-55933 and NVP-BEZ235 | 78.8 | 83.5 | 50.1 | 85.4 | 94.7 | 49.1 |
| 23 | GW2580 and PLX4720 | 93.8 | 83.7 | 111 | 89.2 | 60.5 | 77.5 |
| 24 | NVP-BEZ235 and TCS401 | 81.6 | 91.3 | 74.3 | 78.9 | 72.2 | 54.3 |
| 25 | PLX4720 and KU-55933 | 72.4 | 72.3 | 115 | 71.6 | 59.1 | 57.6 |
| 26 | vatalanib and GW0742 | 66.5 | 92.0 | 65.4 | 73.4 | 84.5 | 65.1 |
| 27 | NVP-BEZ235 and IMD-0354 | 84.8 | 109 | 61.6 | 95.4 | 72.7 | 79.4 |
| 28 | KU-55933 and vorinostat | 70.5 | 89.8 | 77.6 | 89.1 | 72.8 | 79.8 |
| 29 | YM155 and GW2580 | 101 | 112 | 80.0 | 95.3 | 90.7 | 89.1 |
| 30 | IMD-0354 and GW0742 | 107 | 112 | 92.2 | 118 | 88.7 | 96.7 |
| 31 | YM155 and KU-55933 | 38.2 | 82.6 | 33.6 | 62.5 | 34.2 | 57.1 |
| 32 | NVP-BEZ235 and PLX4720 | 83.6 | 78.0 | 65.2 | 79.0 | 53.7 | 64.8 |

Repeated from the top, 3 entries:

| Drugs | COLO 800 | C32 | COLO 792 | COLO 829 | WM451Lu | WM3619 |
|---|---|---|---|---|---|---|
| GW2580 and vatalanib | 59.6 | 104 | 73.7 | 93.3 | 83.3 | 73.4 |
| IMD-0354 and KU-55933 | 101 | 93.9 | 106 | 110 | 101 | 88.8 |
| TCS401 and ABT-263 | 45.0 | 84.0 | 23.0 | 108 | 86.4 | 80.2 |